Values of other authors as cited in patent US20040235879A1, “Method for treatment of chemotherapy-induced diarrhea” (priority 2003, published 2004).
For at least one compound, name, drawing or mass did not settle the structure.

Conditions: cited from earlier work

CCc1c2c(nc3ccc(O[C@@H]4O[C@H](C(=O)O)[C@@H](O)[C@H](O)[C@H]4O)cc13)-c1cc3c(c(=O)n1C2)COC(=O)[C@]3(O)CC [SN-38G]
activity of the glucuronide conjugate: inactive
